Some of these results come from one statement about several compounds together.
Assays:
Alternaria brassicae = experiment: In vivo test on Alternaria brassicae (leaf spot of crucifers); conditions: radish plants, spray 24 h before contamination, dose of 500 ppm, grading 6 to 7 days after contamination vs control plants
Pyrenophora teres = experiment: In vivo preventive test on Pyrenophora teres (barley net blotch); conditions: barley plants, preventive spray, dose of 500 ppm, grading 12 days after contamination vs control plants
[1] = tested on: Mycosphaerella graminicola; experiment: In vivo preventive test on Mycosphaerella graminicola (wheat leaf spot); conditions: wheat plants, preventive spray, dose of 500 ppm, grading 21 to 28 days after contamination vs control plants
Sphaerotheca fuliginea = experiment: In vivo preventive test on Sphaerotheca fuliginea (cucurbit powdery mildew); conditions: gherkin plants, preventive spray, dose of 500 ppm, grading 11-12 days after contamination vs control plants
[2] = tested on: Puccinia recondita f. Sp. tritici; experiment: In vivo test on Puccinia recondita f. sp. tritici (wheat brown rust); conditions: wheat plants, spray 24 h before contamination, dose of 500 ppm, grading 10 days after contamination vs control plants
Peronospora parasitica = experiment: In vivo test on Peronospora parasitica (crucifer downy mildew); conditions: cabbage plants, spray 24 h before contamination, dose of 500 ppm, grading 5 days after contamination vs control plants
Botrytis cinerea = experiment: In vivo test on Botrytis cinerea (grey mould); conditions: gherkin plants, spray 24 h before contamination, dose of 500 ppm, grading 5/7 days after contamination vs control plants

CC(c1cccc2ccccc12)N(C(=O)c1c(C(F)(F)F)nn(C)c1F)C1CC1 (stereo not shown) [Example 79]
at least 70%: protection (Alternaria brassicae) | protection (Pyrenophora teres) | protection (% of efficacy) [1] | protection (% of efficacy) (Sphaerotheca fuliginea)

Cn1nc(C(F)(F)F)c(C(=O)N(Cc2cccc3c(C(F)(F)F)cccc23)C2CC2)c1F [Example 176]
at least 70%: protection (Alternaria brassicae) | protection (Pyrenophora teres) | protection [2] | protection (% of efficacy) [1] | protection (% of efficacy) (Sphaerotheca fuliginea) | protection (% of disease control) (Peronospora parasitica)

Cc1nn(C)c(F)c1C(=O)N(C1CC1)C(C)c1ccc(C)c2ccccc12 (stereo not shown) [Example 16]
at least 70%: protection (Alternaria brassicae) | protection (Pyrenophora teres) | protection [2]

Cn1cc(C(=O)N(Cc2ccc3ccccc3c2Br)C2CC2)c(C(F)F)n1 [Example 26]
at least 70%: protection (Alternaria brassicae) | protection (Pyrenophora teres) | protection [2] | protection (% of efficacy) [1] | protection (% of efficacy) (Sphaerotheca fuliginea)

Cc1ccc(C(C)N(C(=O)c2c(C(F)(F)F)nn(C)c2F)C2CC2)c2ccccc12 (stereo not shown) [Example 18]
at least 70%: protection (Alternaria brassicae) | protection (Pyrenophora teres) | protection (% of efficacy) [1] | protection (% of efficacy) (Sphaerotheca fuliginea)

Cc1ccc2ccccc2c1CN(C(=O)c1cn(C)cc1C(F)(F)F)C1CC1 [Example 49]
at least 70%: protection (Alternaria brassicae) | protection [2] | protection (% of efficacy) [1] | protection (% of efficacy) (Sphaerotheca fuliginea) | protection (% of disease control) (Peronospora parasitica)

Cc1nn(C)c(F)c1C(=O)N(C1CC1)C(C)c1ccc(Br)c2ccccc12 (stereo not shown) [Example 57]
at least 70%: protection (Alternaria brassicae) | protection (Pyrenophora teres) | protection [2] | protection (% of efficacy) [1] | protection (% of efficacy) (Sphaerotheca fuliginea) | protection (% of disease control) (Peronospora parasitica)

Cn1nc(C(F)(F)F)c(C(=O)N(Cc2ccc(Br)c3cccnc23)C2CC2)c1F [Example 166]
at least 70%: protection (Alternaria brassicae) | protection (Pyrenophora teres) | protection (% of efficacy) [1] | protection (% of efficacy) (Sphaerotheca fuliginea)

Cc1ccc2ccccc2c1CN(C(=O)c1c(C)nn(C)c1F)C1CC1 [Example 36]
at least 70%: protection (Botrytis cinerea) | protection (Pyrenophora teres) | protection [2] | protection (% of efficacy) [1] | protection (% of efficacy) (Sphaerotheca fuliginea)

Cc1nn(C)c(F)c1C(=O)N(C1CC1)C(C)c1ccc(F)c2ccccc12 (racemic) [Example 240]
at least 70%: protection (Alternaria brassicae) | protection (Pyrenophora teres) | protection [2] | protection (% of efficacy) [1] | protection (% of efficacy) (Sphaerotheca fuliginea) | protection (% of disease control) (Peronospora parasitica)

CCC(c1cccc2ccccc12)N(C(=O)c1c(C)nn(C)c1F)C1CC1 (stereo not shown) [Example 83]
at least 70%: protection (Alternaria brassicae) | protection (Pyrenophora teres) | protection [2] | protection (% of efficacy) [1] | protection (% of efficacy) (Sphaerotheca fuliginea) | protection (% of disease control) (Peronospora parasitica)

Cc1nn(C)c(F)c1C(=O)N(C1CC1)C(C)c1cccc2ccccc12 (stereo not shown) [Example 65]
at least 70%: protection (Botrytis cinerea) | protection (Alternaria brassicae) | protection (Pyrenophora teres) | protection [2] | protection (% of efficacy) [1] | protection (% of efficacy) (Sphaerotheca fuliginea)

Cc1nn(C)c(F)c1C(=O)N(Cc1cccc2c(Br)cccc12)C1CC1 [Example 213]
at least 70%: protection (Alternaria brassicae) | protection (Pyrenophora teres)

Cc1nn(C)c(F)c1C(=S)N(C1CC1)C(C)c1cccc2ccccc12 (stereo not shown) [Example 66]
at least 70%: protection (Alternaria brassicae) | protection (Pyrenophora teres) | protection [2] | protection (% of efficacy) (Sphaerotheca fuliginea)

CC(c1cccc2ccccc12)N(C(=O)c1c(C(F)F)nn(C)c1F)C1CC1 (stereo not shown) [Example 89]
at least 70%: protection (Botrytis cinerea) | protection (Pyrenophora teres) | protection [2] | protection (% of efficacy) [1] | protection (% of efficacy) (Sphaerotheca fuliginea)

Cc1ccc(C(C)N(C(=O)c2cn(C)nc2C(F)F)C2CC2)c2ccccc12 (stereo not shown) [Example 12]
at least 70%: protection (Alternaria brassicae) | protection (Pyrenophora teres) | protection (% of efficacy) (Sphaerotheca fuliginea)

COc1ccc2c(CN(C(=O)c3c(C)nn(C)c3F)C3CC3)cccc2c1 [Example 204]
at least 70%: protection (Alternaria brassicae) | protection (Pyrenophora teres) | protection (% of efficacy) (Sphaerotheca fuliginea)

CC(c1ccc2ccccc2c1)N(C(=O)c1cn(C)nc1C(F)F)C1CC1 (stereo not shown) [Example 6]
at least 70%: protection (Alternaria brassicae) | protection (Pyrenophora teres) | protection (% of efficacy) [1] | protection (% of efficacy) (Sphaerotheca fuliginea) | protection (% of disease control) (Peronospora parasitica)

Cc1ccc2ccccc2c1CN(C(=O)c1c(C(F)(F)F)nn(C)c1F)C1CC1 [Example 47]
at least 70%: protection (Alternaria brassicae) | protection (Pyrenophora teres) | protection [2] | protection (% of efficacy) [1] | protection (% of efficacy) (Sphaerotheca fuliginea)

COC(=O)C(c1cccc2ccccc12)N(C(=O)c1cn(C)nc1C(F)F)C1CC1 (stereo not shown) [Example 69]
at least 70%: protection (Alternaria brassicae) | protection (Pyrenophora teres) | protection (% of efficacy) [1] | protection (% of efficacy) (Sphaerotheca fuliginea)

CCc1nn(C)c(F)c1C(=O)N(C1CC1)C(C)c1cccc2ccccc12 (stereo not shown) [Example 67]
at least 70%: protection (Botrytis cinerea) | protection (Alternaria brassicae) | protection (Pyrenophora teres) | protection [2] | protection (% of efficacy) [1] | protection (% of efficacy) (Sphaerotheca fuliginea)

Cc1nn(C)c(F)c1C(=O)N(Cc1cccc2ccccc12)C1CC1 [Example 64]
at least 70%: protection (Botrytis cinerea) | protection (Pyrenophora teres) | protection [2] | protection (% of efficacy) [1] | protection (% of efficacy) (Sphaerotheca fuliginea)

Cc1nn(C)c(F)c1C(=O)N(Cc1ccc(Br)c2cccnc12)C1CC1 [Example 167]
at least 70%: protection (Alternaria brassicae) | protection (Pyrenophora teres) | protection [2] | protection (% of efficacy) [1] | protection (% of efficacy) (Sphaerotheca fuliginea)

Cc1nn(C)c(F)c1C(=O)N(C1CC1)C(C)c1ccc2ccccc2c1 (stereo not shown) [Example 2]
at least 70%: protection (Alternaria brassicae) | protection (Pyrenophora teres) | protection [2] | protection (% of efficacy) [1] | protection (% of efficacy) (Sphaerotheca fuliginea) | protection (% of disease control) (Peronospora parasitica)

Cn1cc(C(=O)N(Cc2cccc3c(Br)cccc23)C2CC2)c(C(F)F)n1 [Example 214]
at least 70%: protection (Alternaria brassicae) | protection (Pyrenophora teres)
